Experimental data as given in patent publication US20150025025A1, “Immuno-modulators for treating functional epithelial syndromes” (priority 2013, published 2015).
For at least one compound, name, drawing or mass did not settle the structure.

Tested on: patient with functional dyspepsia
Assay: Case: patient with functional dyspepsia (Example 14)
Format: in vivo, human
Conditions: post-prandial early satiety, bloating, indigestion
Excerpt: A person diagnosed with functional dyspepsia according to the Rome II criteria suffered from post-prandial early satiety, bloating, and stomach indigestion. […] Initially, there was only a lessening of post-prandial indigestion.

Row | Structure (SMILES) | Effect on symptoms of functional dyspepsia
1 | COc1ccnc(C[S+]([O-])c2nc3ccc(OC(F)F)cc3[nH]2)c1OC (centres unmarked) [pantoprazole] | failed to improve their symptoms
2 | COc1ccc2[nH]c([S+]([O-])Cc3ncc(C)c(OC)c3C)nc2c1 (centres unmarked) [Omeprazole, omeprazole] | failed to improve their symptoms
